No constants are given. Whether binding was seen depends on the method and setting. Some binding calls cover weakened binding; strength is not graded here.
B1: AS75383 (VHH)
VHH: EVQLAESGGGSVQAGGSLRLSCVASGYTFSSYCLGWFRQAPGKQRQGVATFNNRGVANYHDSVKGRFTASVDNAKNTLLLQMNSLEPDDTAMYYCAADRRYGRQWYQPCEWNTWGQGTQVTVSS
notes: camel sdAb; crude E. coli supernatant
B2: AS64052 HCAb (Fc fusion, not shown: a dimerising Fc or GST)
chain: QVHLMESGGGSVQAGGSLRLSCAASGYTYRSNFMGWFRQAPGKEREGIATIHSGVATTYYADSVKGRFTISQDNAKNTVYLQMNSLKPEDTAMYYCAAGGPPANADRWYPLRPPGYNYWGQGTQVTVSS
B3: AS75751 (VHH)
VHH: QVRLVESGGGSVQAGGSLRLSCVASGYFYNTYYFMGWFRQAPGKEREGVAAIDTDGRTSYADSVKGRFTISKDNAKNTLYLQMNSLKPEDTAMYYCAAGFGYMNVIQALNGMRQNPDYWGQGTQVTVSS
notes: as for B1
B4: AS76422 (VHH)
VHH: QVKLVESGGGSVQAGGSLRLSCAASGYTFAGNCLGWFRQAPGKGREGVVTYNNFGVANYADSVKGRFTVSQDNAKNTLLLQMNSLEPEDTAMYYCAADRRDGRRWSQPCEWNTWGQGTQVTVSS
notes: as for B1
B5: AS56704 Fab (Fab, V domains shown)
VH: EVQLVESGGGLVQPGGSLRLSCAASGFNISSSYMHWVRQAPGKGLEWVAYIYPSYGYTSYADSVKGRFTISADTSKNTAYLQMNSLRAEDTAVYYCARGGYYYHGMDYWGQGTLVTVSS
VL: DIQMTQSPSSLSASVGDRVTITCRASQSVSSAVAWYQQKPGKAPKLLIYSASSLYSGVPSRFSGSRSGTDFTLTISSLQPEDFATYYCQQASWSPITFGQGTKVEIK
B6: AS56788 Fab (Fab, V domains shown)
VH: EVQLVESGGGLVQPGGSLRLSCAASGFNISSYSMHWVRQAPGKGLEWVAYISSYYGYTYYADSVKGRFTISADTSKNTAYLQMNSLRAEDTAVYYCARYSYYYGMDYWGQGTLVTVSS
VL: DIQMTQSPSSLSASVGDRVTITCRASQSVSSAVAWYQQKPGKAPKLLIYSASSLYSGVPSRFSGSRSGTDFTLTISSLQPEDFATYYCQQHYAPSLITFGQGTKVEIK
B7: AS64062 HCAb (Fc fusion, not shown: a dimerising Fc or GST)
chain: QVRLVESGGGSVQVGGSLRLSCAASRSPYSSSRCMGWFRQAPGKEREGVAALYTGGGSTSYADSVKGRFTISQDNAKNTVYLQMNSLKPEDTAMYYCAAVVPRGGSCRLDERGYYHWGQGTQVTVSS
B8: AS63930 (VHH)
VHH: EVQLAESGGGSVQAGGSLRLSCAASGYTYSGNYMAWFRQAPGNEREGVAVVYNIDGGGRFTTYADSVKGRFTISRGNDKNTVYLQMNSLKPEDSGMYYCAAEVADPTWGSRDQRRYKYWGQGTQVTVSS
notes: as for B1
B9: AS64072 (VHH)
VHH: QVQLVESGGGSVQAGGFLRLSCALSGYSYYINLMAWFRQAPGKEREAVAAHGPVSGTAYYTDSVKGRFTISRDPGKNTMYLQMFSLQPEDTALYYCAAETTMGWAHERGYRYWGQGTQVTVSS
notes: as for B1
B10: AS64097 (VHH)
VHH: QVHLMESGGGSVQAGGSLRLSCEASGYTYSRNCMGWFRQAPGKEREGVAAINTGGGSTYYADSLEGRFTISQDNAKNTMYLQMNSLKPEDTAMYYCAAGPDLGGSWCRPVERAFTYWGQGTQVTVSS
notes: as for B1
B11: AS64114 (VHH)
VHH: QVQLQESGGGSVQAGGSLTLSCEASGNTYSTNYMGWFRQAPGKEREEVAVIYTRGGHTYYVDSVRGRFTISQDNAKNTVYLQMNSLKPEDTAMYYCAAASRHRLRLNNPRDYDYWGQGTQVTVSS
notes: as for B1
B12: AS64123 (VHH)
VHH: QVQLAESGGGSVQAGGSLRLSCAASGYTYTSNWLGWFRQAPGKEREEVAIIYTGSGSTHYRSSVKGRFTISQDNAKNTVYLQMNSLKPEDTAMYYCAARFSEYNYWGQGTQVTVSS
notes: as for B1
B13: AS63999 (VHH)
VHH: EVQLVESGGGSVQAGGSLRLSCAASGYTYSSNWMGWFRQAPGKEREEVAIIYTGGISTHYRSSVKGRFTISQDNAKNTVYLQMNSLKPEDTAMYYCAARYTDYNYWGQGTQVTVSS
notes: as for B1
B14: AS64130 (VHH)
VHH: EVQLAESGGGSVQAGGSLRLSCAASGYTYRSNFMGWFRQAPAKEREGVATIDSRGTITYYADSVKGRFTISQDNEKNTVYLQMNSLKPEDTAMYYCAAGGPRTNDDRWYPLRPPGYNYWGQGTQVTVSS
notes: as for B1
B15: AS64137 (VHH)
VHH: QVRLVESGGGSVQAGGSLRLSCAASGSTYSTNFMGWFRQAPGKEREGVATLVTWVERTAYADSVKGRFTISQDRAKNTVYLQMNSLKPEDTAMYYCAAAAASTDVRLLDPGDFAYWGQGTQVTVSS
notes: as for B1
B16: AS64142 (VHH)
VHH: QVHLMESGGGLVQTGGSLRLSCTASGFTFDRNAMRWYRQAPGKEREGVSCIDWTGANIAYADSVKGRFTISRDNAKNTLYLQMNSLKPEDTGMYYCAADTTSGYCSGFWSTSRYSWGQGTQVTVSS
notes: as for B1
B17: AS64057 (VHH)
VHH: QVQLEESGGGLVQTGGSLRLSCTASGFTFDRNAMRWYRQAPGKEREGVSCISWTGANIAYADSVKGRFTISRDNAKNTLYLQMNSLKPEDTGMYYCAADTTSGSCSGFWSTSRYYWGQGTQVTVSS
notes: as for B1
B18: AS64160 (VHH)
VHH: EVQLVESGGGSVQAGGSLRLSCAASVYTSSSYCMGWFRQAPGKEREGVAAMCFGGLVTHYADSVKGRFTISQDNAKNTVYLQMNSLKPEDTAMYYCAADFGRDKNYLRPLLPHAYNYWGQGTQVTVSS
notes: as for B1
B19: AS64228 (VHH)
VHH: QVQLKESGGGSIQAGGSLRLSCAASGVSYNRCSMGWYRQAPGKGRELVSRIQPGGNTYYADSVKGRFTVSQDNAKNTVSLQMNSLKPEDTAMYYCNALCWRENVNYWGQGTQVTVSS
notes: as for B1
B20: AS63932 (VHH)
VHH: QVQLEESGGGSVQAGGSLRLSCVASGYTYGSTFMGWFRQNPGKEREGVAVIYTGGGSTWYASSVKGRFTISQDNAKNTVYLQMNSLKPEDTAMYYCAARYGSGNVNYWGQGTQVTVSS
notes: as for B1
B21: AS64300 (VHH)
VHH: QVHLVESGGGSVQTGGSLRLSCAVSGDIYNLMSMAWFRRAPGKEREGVAYINTIIGNTYYTDSVKGRFTISRDNSKNTLYLQMNNLKPEDTAMYYCAAFNYGGAWYEERSYKYWGQGTQVTVSS
notes: as for B1
B22: AS64380 HCAb (Fc fusion, not shown: a dimerising Fc or GST)
chain: EVQLVESGGGSVQAGGSLTLSCEASGNTYSSNYMGWFRQAPGKEREEVAVIYTRGGHTYYVDSVRGRFTISQDNAKNTVYLQMNSLKPEDTAMYYCAASSRHRLGLNNPRDYDYWGQGTQVTVSS
notes: camel sdAb fused with human IgG1 hinge and Fc (chimeric HCAb), crude HEK293 medium
B23: AS64395 (VHH)
VHH: QVRLVESGGGSVQAGGSLRLSCAASGSTYSTNFMGWFRQAPGKEREGVATLVTWAERTAYADSVKGRFTISQDRAKNTVYLQMNGLKPEDTAMYYCAAAASTAVRLLDPGDFAYWGQGTQVTVSS
notes: as for B1

Protein sequences, listed by entry. Tags and fused reporters are not part of them. Lines headed by an entry give the natural chain unless they say otherwise; changes in a name come on top. Chains listed by the source or under a name are the forms on record and can include a tag or linker.
rhesus DLL3 (F6TFV4, form named): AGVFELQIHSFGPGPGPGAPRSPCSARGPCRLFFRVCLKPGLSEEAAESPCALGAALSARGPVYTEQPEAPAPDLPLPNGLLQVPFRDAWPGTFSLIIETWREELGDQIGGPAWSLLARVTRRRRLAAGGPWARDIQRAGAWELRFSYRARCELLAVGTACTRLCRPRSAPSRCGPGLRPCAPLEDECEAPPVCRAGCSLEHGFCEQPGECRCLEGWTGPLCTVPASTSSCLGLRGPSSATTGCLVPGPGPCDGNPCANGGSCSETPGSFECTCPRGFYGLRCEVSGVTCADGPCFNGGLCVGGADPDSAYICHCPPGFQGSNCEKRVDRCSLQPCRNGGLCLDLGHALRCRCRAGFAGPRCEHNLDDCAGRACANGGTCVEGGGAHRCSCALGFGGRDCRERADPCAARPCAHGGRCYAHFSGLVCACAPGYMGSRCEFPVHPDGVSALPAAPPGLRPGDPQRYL

Molecular target: rhesus DLL3 (rhesus) (UniProt F6TFV4)
Experiment: ELISA (protein), FACS (cells)

Binder	binding
B1	binds
B2	binds
B3	binds
B4	binds
B5	binds
B6	binds
B7	binds
B8	binds
B9	binds
B10	binds
B11	binds
B12	binds
B13	binds
B14	binds
B15	binds
B16	binds
B17	binds
B18	binds
B19	binds
B20	binds
B21	binds
B22	binds
B23	binds
